Assay results reported in paper PMC6358605.
These are yes or no findings as the source states them, for the method shown. Sequences can lack the tags named with a protein.

Protein sequences, listed by entry. Tags and fused reporters are not part of them. Residues count along the entry.
UniProt G3I8R9, residues 28-413: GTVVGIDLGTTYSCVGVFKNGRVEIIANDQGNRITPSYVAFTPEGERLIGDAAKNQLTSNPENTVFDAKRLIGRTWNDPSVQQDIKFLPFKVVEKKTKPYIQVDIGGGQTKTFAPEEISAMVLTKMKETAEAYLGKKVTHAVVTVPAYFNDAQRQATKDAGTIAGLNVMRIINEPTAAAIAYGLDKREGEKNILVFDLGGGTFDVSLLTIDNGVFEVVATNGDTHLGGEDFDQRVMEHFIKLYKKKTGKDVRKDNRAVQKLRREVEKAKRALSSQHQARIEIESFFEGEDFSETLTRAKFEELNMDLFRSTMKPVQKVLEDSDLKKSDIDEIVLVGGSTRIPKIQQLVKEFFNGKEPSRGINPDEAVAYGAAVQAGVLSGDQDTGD

Molecular target: T1, biotinylated AviTag-SAPLIP^22–123 (mouse) (UniProt Q9CXI5)
T1 sequence (chain, biotin (on the AviTag, by E. coli BirA)): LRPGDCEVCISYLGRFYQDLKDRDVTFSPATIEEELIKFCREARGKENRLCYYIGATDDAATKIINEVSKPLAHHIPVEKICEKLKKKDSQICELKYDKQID
Assay: BLI; sequential dipping: streptavidin biosensors loaded with biotinylated MANF, SAP or SAPLIP, dipped in BiP SBD, buffer, BiP NBD with 2 mM ATP, 2 mM ATP, BiP NBD with 2 mM ADP, 2 mM ADP; HKMT buffer; both purified

binding: no binding
Substance: BiP NBD (28–413) (from UniProt G3I8R9 28-413) (domain or fragment)
